Laboratory results taken from patent publication US5061691A (Kabushiki Kaisha Vitamin Kenkyuso, priority 1987, dated 1991).

Assay: general procedure: solution-phase peptide synthesis
Settings: late stage modification step

Substance: PEPTIDE1{Y.[dA].G}|PEPTIDE2{Y.[dA].G}|CHEM1{[DACH]}$PEPTIDE1,CHEM1,3:R2-1:R1|PEPTIDE2,CHEM1,3:R2-1:R2$$$V2.0
- step yield: 98%

Some peptides are written in HELM: one residue between dots, names in brackets for other building blocks, links after the first $.
